# In PubChem BioAssay AID540276 (National Center for Advancing Translational Sciences (NCATS), 2011):
# Among all 300,000 compounds or so, about 5,400 (1.8%) were called active. Inconclusive results, whose numbers are uncertain, are shown with a selection of clear calls. Calls come from the whole dose curve; tested in HEK293 cells. Potencies beside an inconclusive call are fits to weak or partial responses and may not hold up.
# Experiment: qHTS for inhibitors of binding or entry into cells for Marburg Virus
# Conditions: Marburg virus pseudotyped entry inhibition, cell reporter; series mostly up to 37.8 µM
# Potency is the fitted concentration of half-maximal effect.
row,SMILES,Potency
1,COc1cccc(NC(=O)CSc2nnc(-c3cc(C)n(-c4ccccc4)c3C)o2)c1,"inconclusive: 35.5 µM [inhibitor, single point]"
2,CCSc1oc(-c2ccc(F)cc2)nc1S(=O)(=O)c1ccc(C)cc1,inactive
3,NC(N)=N/N=C/c1ccc(Cl)c([N+](=O)[O-])c1,"inconclusive: 14.1 µM [inhibitor, single point]"
4,O=C(COC(=O)c1cc(Br)ccc1Cl)NC(=O)NCc1ccccc1,inactive
5,CCN(CC)C(=S)SCc1csc(CC(=O)Nc2ccccc2C)n1,"inconclusive: 7.08 µM [inhibitor, partial curve, poor fit]"
6,CCCCCCCCCCOC(=O)Cn1c(COc2cccc(C)c2)[n+](C)c2ccccc21,"inconclusive: 11.2 µM [inhibitor, partial curve, poor fit]"
7,CC1=C(C(=O)OC(C)C)C(c2ccncc2)n2ncnc2N1 (centres undefined),inactive
8,CN1CCN(C(=O)c2ccc3c(c2)N(Cc2c(F)cccc2Cl)C(=O)c2ccccc2S3)CC1,"inconclusive: 10 µM [inhibitor, partial curve, poor fit]"
9,COc1ccc(Oc2nc3c(c(=O)n(C)c(=O)n3C)n2Cc2ccccc2Cl)cc1,"inconclusive: 0.562 µM [inhibitor, full curve, poor fit]"
10,O=C(CN(Cc1ccccc1F)S(=O)(=O)c1ccc(Cl)cc1)NCCC1=CCCCC1,"inconclusive: 16.4 µM [inhibitor, single point]"
11,CC1CN/C(=C\C(=O)c2ccccc2)C(=O)N1 (centres undefined),"inconclusive: 0.708 µM [activator, single point]"
12,CCCCn1c(N)c(N(CC(C)C)C(=O)C2CC(=O)N(c3ccc4c(c3)OCCO4)C2)c(=O)[nH]c1=O (centres undefined),"inconclusive: 35.5 µM [activator, single point]"
13,CN(Cc1cc(=O)n2ccsc2n1)c1ccccc1,inactive
14,Fc1ccc(CNC(=S)Nc2cccc(Cl)c2)cc1,inactive
15,Cc1ccc(C(=O)N/C(=C\c2sccc2C)C(=O)NCc2ccncc2)cc1,"inconclusive: 1.26 µM [inhibitor, single point]"
16,CC(=O)c1ccc(N2CCN(C(=O)c3nn(C)c4c3CS(=O)(=O)c3ccccc3-4)CC2)cc1,"inconclusive: 11.2 µM [inhibitor, partial curve, poor fit]"
17,O=C(c1ccc(COc2c(F)c(F)c(F)c(F)c2F)o1)N1CCN(Cc2ccc3c(c2)OCO3)CC1,"inconclusive: 23.1 µM [inhibitor, single point]"
18,CCN(CC)CCNc1nc(C(F)(F)F)nc2c1nnn2Cc1ccccc1,"inconclusive: 12.6 µM [inhibitor, single point]"
19,CCNC(=O)C12CCC(C)(c3nc4cc(C)c(C)cc4nc31)C2(C)C (centres undefined),"inconclusive: 5.62 µM [inhibitor, single point]"
20,COc1ccc(NC(=O)CCN2CCN(CCO)CC2)c(OC)c1,inactive
21,O=C(CNC(=O)c1ccco1)Nc1ccc2c(c1)OCCO2,"inconclusive: 14.1 µM [inhibitor, single point]"
22,CCOC(=O)C1=C(C)NC(=O)/C1=C\N(C)C,inactive

row,SMILES,Potency
1,CC(C)[C@H](NC(=O)c1ccc(Cl)cc1)C(=O)OCC(=O)N1CCN(c2ccccc2)CC1,inactive
2,CCN(CC)C(=O)COc1ccc(-c2nnc(N3CCCCC3)c3ccccc23)cc1,inactive
3,Cc1ccc(Nc2nnc(SCC(=O)Nc3cccnc3Cl)s2)cc1C,"inconclusive: 0.326 µM [inhibitor, full curve, poor fit]"
4,N#Cc1ccc(Oc2ccc(-c3nc4ccccc4nc3-c3ccccc3)cc2)cc1C#N,"inconclusive: 11.2 µM [inhibitor, single point]"
5,COc1cc(/C=N/n2nnnc2N)cc(Cl)c1OC,"inconclusive: 35.5 µM [activator, single point]"
6,COCCNCCOc1ccccc1-c1ccccc1,"inconclusive: 35.5 µM [inhibitor, single point]"
7,O=C(COc1ccccc1F)N1CCCc2ccccc21,inactive
8,CNC(=O)c1c(Cl)cnn1-c1ccc(C)cc1,"inconclusive: 4.47 µM [activator, partial curve, poor fit]"
9,Cn1c(=O)c2c(-c3ccccc3Br)n(C(C)(C)C)cc2n(C)c1=O,"inconclusive: 25.1 µM [inhibitor, single point]"
10,CCCC(=O)Nc1ccc2nn(-c3ccc(CC)cc3)nc2c1,"inconclusive: 22.4 µM [activator, partial curve, poor fit]"
11,CN(C)S(=O)(=O)c1ccc(S(=O)(=O)N(CC(=O)Nc2ccccc2)Cc2ccco2)cc1,"inconclusive: 11.2 µM [activator, partial curve, poor fit]"
12,CCOC(=O)C1CCN(C(=O)CNC(=O)OC(C)(C)C)CC1,"inconclusive: 3.98 µM [activator, partial curve, poor fit]"
13,O=C(Nc1cc([N+](=O)[O-])ccc1Cl)c1ccc2c(c1)OCO2,"inconclusive: 5.62 µM [inhibitor, partial curve, poor fit]"
14,Cc1ccnc(N/N=C/c2ccccc2)n1,"inconclusive: 3.55 µM [activator, single point]"
15,CCN(CC)C(=O)CSc1ncccc1-c1nc2ccccc2[nH]1,inactive
16,CCN1CCN(/C=N/c2nc3c(s2)CCCC3)CC1,active: 5.8 µM
17,Cc1ccc(NC(=O)Nc2cccs2)nc1,"inconclusive: 1.3 µM [activator, full curve, poor fit]"
18,COc1c(C(=O)N2CCCC2)ccc2ccccc12,"inconclusive: 0.073 µM [inhibitor, single point]"
19,CCOc1ccc2nc(NC(=O)CSc3ccccc3)sc2c1,inactive
20,COc1ccc(Cc2nnc(Nc3c(C)cccc3C)o2)cc1OC,"inconclusive: 0.891 µM [inhibitor, full curve, poor fit]"
21,CCC(C(=O)Nc1ncc(C)s1)c1ccccc1 (centres undefined),"inconclusive: 35.5 µM [inhibitor, single point]"
22,Cc1cc2c(cc1S(=O)(=O)N1CCc3ccccc31)NC(=O)CO2,"inconclusive: 7.08 µM [inhibitor, partial curve, poor fit]"

# Of the compounds above, 2 contain bromine:
row,SMILES,Potency
4,O=C(COC(=O)c1cc(Br)ccc1Cl)NC(=O)NCc1ccccc1,inactive
9,Cn1c(=O)c2c(-c3ccccc3Br)n(C(C)(C)C)cc2n(C)c1=O,"inconclusive: 25.1 µM [inhibitor, single point]"
